Experimental data: the supplement of paper PMC4807443
Where a name gives a salt, the structure may show the parent alone. Some of the results follow. The numbers are fractions of the control, whatever unit the source prints. Most entries show no effect beyond the scatter of the controls.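 MIN6, a mouse insulinoma beta-cell line, stably carries a lentiviral reporter where Pdx1 and Ins1 promoters each drive a nuclear fluorescent protein; Hoechst staining and automated imaging counted cells. Drugs were candidate hits if Ins1 promoter readout exceeded two median absolute deviations from DMSO controls while Pdx1 activity stayed near normal.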

tested on: MIN6; assay: % Pdx1+ Ins1+ (double-positive, mature) cells relative to DMSO control (fold of DMSO control); higher = more mature Ins1 promoter-active cells; settings: 8.5 µM; 48 h; glucose 5 mM

Structure (SMILES) | % Pdx1+ Ins1+
NNCCc1ccccc1 [Phenelzine sulfate] | 1.06
C=C1CC[C@H](O)C/C1=C/C=C1\CCC[C@]2(C)[C@@H]([C@H](C)CCCC(C)C)CC[C@@H]12 [Cholecalciferol] | 0.848
CC(C)(C)NC[C@@H](O)COc1cccc2c1CCCC2=O [(+) -Levobunolol hydrochloride] | 0.889
N=C(N)NC(=N)NCCc1ccccc1 [Phenformin hydrochloride] | 1.14
CN1CCC(=C2c3ccccc3C=Cc3ccccc32)CC1 [Cyproheptadine hydrochloride] | 0.732
CS(=O)(=O)c1ccc([C@@H](O)[C@@H](CF)NC(=O)C(Cl)Cl)cc1 [Florfenicol] | 1.07
CCN(CC)CCCC(C)Nc1ccnc2cc(Cl)ccc12 (stereo unspecified) [Chloroquine diphosphate] | 0.867
Nc1ccc(S(=O)(=O)NC(=O)c2ccccc2)cc1 [Sulfabenzamide] | 0.812
C=C(CC)C(=O)c1ccc(OCC(=O)O)c(Cl)c1Cl [Ethacrynic acid] | 0.942
O=C1NCCN1c1ncc([N+](=O)[O-])s1 [Niridazole] | 0.808
C=C(C)[C@@H]1CC[C@]2(C(=O)O)CC[C@]3(C)[C@H](CC[C@@H]4[C@@]5(C)CC[C@H](O)C(C)(C)[C@@H]5CC[C@]43C)[C@@H]12 [Betulinic acid] | 0.921
C[C@@H](O)[C@H]1C(=O)N2C(C(=O)O)=C(SCCNC=N)C[C@H]12 [Imipenem] | 0.945
c1ccc2c(c1)CCCC2C1=NCCN1 (stereo unspecified) [Tetrahydrozoline hydrochloride] | 0.642
CC(C)(C)C(=O)OCOC(=O)[C@@H]1N2C(=O)[C@@H](/N=C/N3CCCCCC3)[C@H]2SC1(C)C [Pivmecillinam hydrochloride] | 0.934
CNc1ncnc2c1ncn2[C@@H]1O[C@H](CO)[C@@H](O)[C@H]1O [N6-methyladenosine] | 0.833
OCC(O)CN1CCN(c2ccccc2)CC1 (racemic) [Dropropizine (R,S)] | 1.09
CCn1cc(C(=O)O)c(=O)c2cc(F)c(N3CCNCC3)nc21 [Enoxacin] | 0.912
CCCc1ncc(C[n+]2ccccc2C)c(N)n1 [Amprolium hydrochloride] | 1.18
CC(C(=O)O)c1cccc(Oc2ccccc2)c1 (stereo unspecified) [Fenoprofen calcium salt dihydrate] | 0.839
Cc1ccc(N(CC2=NCCN2)c2cccc(O)c2)cc1 [Phentolamine hydrochloride] | 0.958
Cc1c(Cl)cccc1Nc1ccccc1C(=O)O [Tolfenamic acid] | 0.935
CCCSc1ccc2[nH]c(NC(=O)OC)nc2c1 [Albendazole] | 1.09
CO[C@H]1/C=C/O[C@@]2(C)Oc3c(C)c(O)c4c(O)c(c(/C=N/N5CCN(C)CC5)c(O)c4c3C2=O)NC(=O)/C(C)=C\C=C\[C@H](C)[C@H](O)[C@@H](C)[C@@H](O)[C@@H](C)[C@H](OC(C)=O)[C@@H]1C [Rifampicin] | 0.848
CC[C@H]1OC(=O)[C@H](C)[C@@H](O[C@H]2C[C@@](C)(OC)[C@@H](O)[C@H](C)O2)[C@H](C)[C@@H](O[C@@H]2O[C@H](C)C[C@H](N(C)C)[C@H]2O)[C@](C)(O)C[C@@H](C)C(=O)[C@H](C)[C@@H](O)[C@]1(C)O [Erythromycin] | 0.947

For convenience, 4 of the compounds above:
Structure (SMILES) | % Pdx1+ Ins1+
Cc1c(Cl)cccc1Nc1ccccc1C(=O)O [Tolfenamic acid] | 0.935
CCCSc1ccc2[nH]c(NC(=O)OC)nc2c1 [Albendazole] | 1.09
CO[C@H]1/C=C/O[C@@]2(C)Oc3c(C)c(O)c4c(O)c(c(/C=N/N5CCN(C)CC5)c(O)c4c3C2=O)NC(=O)/C(C)=C\C=C\[C@H](C)[C@H](O)[C@@H](C)[C@@H](O)[C@@H](C)[C@H](OC(C)=O)[C@@H]1C [Rifampicin] | 0.848
CC[C@H]1OC(=O)[C@H](C)[C@@H](O[C@H]2C[C@@](C)(OC)[C@@H](O)[C@H](C)O2)[C@H](C)[C@@H](O[C@@H]2O[C@H](C)C[C@H](N(C)C)[C@H]2O)[C@](C)(O)C[C@@H](C)C(=O)[C@H](C)[C@@H](O)[C@]1(C)O [Erythromycin] | 0.947

Further records:

Structure (SMILES) | % Pdx1+ Ins1+
O=C1c2ccccc2C(=O)C1c1ccccc1 [Phenindione] | 0.801
Clc1ccc2c(c1)C(N1CCNCC1)=Nc1ccccc1O2 [Amoxapine] | 1.03
O=C(O)CCc1nc(-c2ccccc2)c(-c2ccccc2)o1 [Oxaprozin] | 1.02
c1ccc(CC2=NCCN2)cc1 [Tolazoline hydrochloride] | 1.02
CC(C)(Oc1ccc(CCNC(=O)c2ccc(Cl)cc2)cc1)C(=O)O [Bezafibrate] | 0.956
OCCN1CCN(CCCN2c3ccccc3Sc3ccc(C(F)(F)F)cc32)CC1 [Fluphenazine dihydrochloride] | 0.995
C[C@]12CCC(=O)C=C1CC[C@@H]1[C@@H]2C(=O)C[C@@]2(C)[C@H]1CC[C@]2(O)C(=O)CO [Cortisone] | 1.16
COCCCC/C(=N\OCCN)c1ccc(C(F)(F)F)cc1 [Fluvoxamine maleate] | 0.814
O=C(O)C1CCCNC1 (racemic) [(±)-Nipecotic acid] | 0.896
CN(C)[C@@H]1C(O)=C(C(N)=O)C(=O)[C@@]2(O)C(O)=C3C(=O)c4c(O)cccc4[C@@](C)(O)[C@H]3C[C@@H]12 [Tetracycline hydrochloride] | 1.03
O=C(O)COC(=O)Cc1ccccc1Nc1c(Cl)cccc1Cl [Aceclofenac] | 1.05
CC1CC(OC(=O)C(O)c2ccccc2)CC(C)(C)N1C (stereo unspecified) [Eucatropine hydrochloride] | 0.974
C1CCN2C[C@@H]3C[C@@H](CN4CCCC[C@@H]34)[C@H]2C1 [Sparteine (-)] | 0.969
COc1ccc2c(OC)c3ccoc3nc2c1OC [Skimmianine] | 1
CCN1CCC[C@H]1CNC(=O)c1c(OC)ccc(Br)c1OC [Remoxipride Hydrochloride] | 0.954
Cc1nnc(NS(=O)(=O)c2ccc(N)cc2)s1 [Sulfamethizole] | 0.932
C[C@H]1C[C@H]2[C@@H]3CCC4=CC(=O)C=C[C@]4(C)[C@@]3(F)[C@@H](O)C[C@]2(C)[C@@]1(O)C(=O)CO [Betamethasone] | 0.98
Oc1ccc(OCc2ccccc2)cc1 [Monobenzone] | 0.648
CC(C(=O)O)c1ccc(N2Cc3ccccc3C2=O)cc1 (stereo unspecified) [Indoprofen] | 0.86
CC1=Nc2ccc(Cl)cc2S(=O)(=O)N1 [Diazoxide] | 1.05
Cc1ccc(Cl)c(Nc2ccccc2C(=O)O)c1Cl [Meclofenamic acid sodium salt monohydrate] | 1.07
COC(=O)Nc1nc2ccc(SC(C)C)cc2[nH]1 [Methiazole] | 0.943
CCN1CCN(C(=O)N[C@@H](C(=O)N[C@@H]2C(=O)N3C(C(=O)O)=C(CSc4nnnn4C)CS[C@H]23)c2ccc(O)cc2)C(=O)C1=O [Cefoperazone dihydrate] | 0.958
CCCCNc1ccc(C(=O)OCCOCCOCCOCCOCCOCCOCCOCCOCCOC)cc1 [Benzonatate] | 1.07

Structure (SMILES) | % Pdx1+ Ins1+
CCn1nc(C(=O)O)c(=O)c2cc3c(cc21)OCO3 [Cinoxacin] | 0.866
Cc1cc(/C=C/c2ccc3cc(N(C)C)ccc3[n+]2C)c(C)n1-c1ccccc1 [Pyrvinium pamoate] | 0.0824
O=C(O)/C=C/c1ccc(Cn2ccnc2)cc1 [Ozagrel hydrochloride] | 0.874
CC[C@H]1OC(=O)[C@H](C)[C@@H](O[C@H]2C[C@@](C)(OC)[C@@H](O)[C@H](C)O2)[C@H](C)[C@@H](O[C@@H]2O[C@H](C)C[C@H](N(C)C)[C@H]2O)[C@](C)(O)C[C@@H](C)[C@@H]2N[C@@H](COCCOC)O[C@H]([C@H]2C)[C@]1(C)O [Dirithromycin] | 0.969
O=C1CC2(CCCC2)CC(=O)N1CCCCN1CCN(c2ncccn2)CC1 [Buspirone hydrochloride] | 0.93
CC(C)CC(=O)N[C@H](C(=O)N[C@H](C(=O)N[C@@H](CC(C)C)[C@@H](O)CC(=O)N[C@@H](C)C(=O)N[C@@H](CC(C)C)[C@@H](O)CC(=O)O)C(C)C)C(C)C [Pepstatin A] | 0.985
C[C@H](O)C(=O)Nc1c(I)c(C(=O)NC(CO)CO)c(I)c(C(=O)NC(CO)CO)c1I [Iopamidol] | 1.07
CO/N=C(\C(=O)N[C@@H]1C(=O)N2C(C(=O)O)=C(COC(N)=O)CS[C@H]12)c1ccco1 [Cefuroxime sodium salt] | 0.788
O=C(NCC(O)CO)c1c(I)c(C(=O)NCC(O)CO)c(I)c(N(CCO)C(=O)CO)c1I (stereo unspecified) [Ioversol] | 0.92
Nc1ccc(S(=O)(=O)Nc2ccnn2-c2ccccc2)cc1 [Sulfaphenazole] | 1.12
CC1Cc2ccccc2N1NC(=O)c1ccc(Cl)c(S(N)(=O)=O)c1 (stereo unspecified) [Indapamide] | 1.1
Cc1cc(CC(=O)O)n(C)c1C(=O)c1ccc(Cl)cc1 [Zomepirac sodium salt] | 0.896
COc1ccc(C2CNC(=O)C2)cc1OC1CCCC1 (stereo unspecified) [Rolipram] | 0.951
CC[N+]1(C)C2CCC1CC(OC(=O)C1CCC(C(=O)OC3CC4CCC(C3)[N+]4(C)CC)(c3ccccc3)c3ccccc31)C2 (stereo not drawn) [beta- Belladonnine dichloroethylate] | 0.94
c1ccc2c3c([nH]c2c1)C1C2CCC(C4CCCNC42)N1CC3 (stereo unspecified) [Nitrarine dihydrochloride] | 0.864
CN1CC[C@]23c4ccccc4N[C@H]1[C@]21CCN(C)[C@H]3Nc2ccccc21 [Calycanthine] | 0.913
c1ccc([C@H]2CN3CCSC3=N2)cc1 [Levamisole hydrochloride] | 1.13
CCC(=O)O[C@]1(C(=O)CCl)[C@@H](C)C[C@H]2[C@@H]3CCC4=CC(=O)C=C[C@]4(C)[C@@]3(F)[C@@H](O)C[C@@]21C [Clobetasol propionate] | 0.981
O=C1C[C@@H](c2ccc(O)cc2)Oc2cc(O)cc(O)c21 [Naringenine] | 0.832
O=S(=O)(O)c1cc(O)ccc1O [Ethamsylate] | 0.985
CCOC(=O)Oc1c(OC)cc(C(=O)O[C@@H]2C[C@@H]3CN4CCc5c([nH]c6cc(OC)ccc56)[C@H]4C[C@@H]3[C@H](C(=O)OC)[C@H]2OC)cc1OC [Syrosingopine] | 0.731
O=C1OCCN1/N=C/c1ccc([N+](=O)[O-])o1 [Furazolidone] | 0.99
CN(C)c1nc(N(C)C)nc(N(C)C)n1 [Altretamine] | 1.02
